Reference: publication PMC11343471
Results are given in words; binding and its absence hold for the method and conditions named. Binding seen in cells or lysates may run through a third protein. Here binding means that the protein was enriched with, or labelled near, the bait; the list need not be complete. Tags and fused reporters may be left off the sequences shown.

By UniProt entry, the sequences of proteins in these tests, tags left out. Residues count along the entry.
UniProt Q15843, residues 1-76: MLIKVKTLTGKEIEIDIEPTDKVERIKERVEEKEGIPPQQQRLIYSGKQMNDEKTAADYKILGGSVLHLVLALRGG
UniProt P63208: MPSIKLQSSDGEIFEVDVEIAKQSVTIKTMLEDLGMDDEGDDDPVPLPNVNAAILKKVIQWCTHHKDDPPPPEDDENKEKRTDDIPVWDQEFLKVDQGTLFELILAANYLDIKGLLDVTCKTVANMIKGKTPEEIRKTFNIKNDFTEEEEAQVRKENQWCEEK

B1: L3MBTL3, endogenous in PaTu8988t cells (protein, UniProt Q96JM7 1-780)
chain: MTESASSTSGQEFDVFSVMDWKDGVGTLPGSDLKFRVNEFGALEVITDENEMENVKKATATTTWMVPTAQEAPTSPPSSRPVFPPAYWTSPPGCPTVFSEKTGMPFRLKDPVKVEGLQFCENCCQYGNVDECLSGGNYCSQNCARHIKDKDQKEERDVEEDNEEEDPKCSRKKKPKLSLKADTKEDGEERDDEMENKQDVRILRGSQRARRKRRGDSAVLKQGLPPKGKKAWCWASYLEEEKAVAVPAKLFKEHQSFPYNKNGFKVGMKLEGVDPEHQSVYCVLTVAEVCGYRIKLHFDGYSDCYDFWVNADALDIHPVGWCEKTGHKLHPPKGYKEEEFNWQTYLKTCKAQAAPKSLFENQNITVIPSGFRVGMKLEAVDKKNPSFICVATVTDMVDNRFLVHFDNWDESYDYWCEASSPHIHPVGWCKEHRRTLITPPGYPNVKHFSWDKYLEETNSLPAPARAFKVKPPHGFQKKMKLEVVDKRNPMFIRVATVADTDDHRVKVHFDGWNNCYDYWIDADSPDIHPVGWCSKTGHPLQPPLSPLELMEASEHGGCSTPGCKGIGHFKRARHLGPHSAANCPYSEINLNKDRIFPDRLSGEMPPASPSFPRNKRTDANESSSSPEIRDQHADDVKEDFEERTESEMRTSHEARGAREEPTVQQAQRRSAVFLSFKSPIPCLPLRWEQQSKLLPTVAGIPASKVSKWSTDEVSEFIQSLPGCEEHGKVFKDEQIDGEAFLLMTQTDIVKIMSIKLGPALKIFNSILMFKAAEKNSHNEL
B2: L3MBTL4, endogenous in PaTu8988t cells (protein, UniProt Q8NA19 1-623)
chain: MKQPNRKRKLNMDSKERLDQDGRLEQAEEEKKPKDSTTPLSHVPSAAAQGAWSWEWYLKEQKAVAAPVELFSKDQSFPEHENGFQIGMRLEGIDPRHPSVFCVLSVAEVCGYRLRLHFDGYLSCYDFWTNAGSPDIHPVGWCEKTKHELHIPKGYRKDKFVWMDYLKACKLQNAPKKLFRNRSPNGPMSKEFQVGMKLEAVDRKNPSLVCVATIADIVEDRLLVHFDNWDDSYDYWCDVNSPYVQPVGWCQENGRTLIAPQGYPNPENFSWTEYLEATQTNAVPAKVFKMRLPHGFLPNMKLEVVDKRNPRLIRVATIVDVDDQRVKVHFDGWDHKYDYWVEADSPDIHPIGWCDVTGHPLEVPQRTNDLKILPGQAVCPTPGCRGIGHIRGPRYSGHHSAFGCPYSDMNLKKEATLHDRLREQTQANLESDSSHSKSKSLCSLNFNGKHEKVNSQPRLVQQAKCLKIKGKEDIDLDNLFRVLVLHPRGLEYSVEQAQQVLHQSVSMSTVSAHPFRDLPLGREQHCKLLPGVADIRASQVARWTVDEVAEFVQSLLGCEEHAKCFKKEQIDGKAFLLLTQTDIVKVMKIKLGPALKIYNSILMFRHSQELPEEDIASGQEVRG
B3: FBXO11, endogenous in PaTu8988t cells (protein, UniProt Q86XK2 1-927)
chain: MNSVRAANRRPRRVSRPRPVQQQQQQPPQQPPPQPPQQQPPQQQPPPPPQQQQQQQPPPPPPPPPPLPQERNNVGERDDDVPADMVAEESGPGAQNSPYQLRRKTLLPKRTACPTKNSMEGASTSTTENFGHRAKRARVSGKSQDLSAAPAEQYLQEKLPDEVVLKIFSYLLEQDLCRAACVCKRFSELANDPILWKRLYMEVFEYTRPMMHPEPGKFYQINPEEYEHPNPWKESFQQLYKGAHVKPGFAEHFYSNPARYKGRENMLYYDTIEDALGGVQEAHFDGLIFVHSGIYTDEWIYIESPITMIGAAPGKVADKVIIENTRDSTFVFMEGSEDAYVGYMTIRFNPDDKSAQHHNAHHCLEITVNCSPIIDHCIIRSTCTVGSAVCVSGQGACPTIKHCNISDCENVGLYITDHAQGIYEDNEISNNALAGIWVKNHGNPIIRRNHIHHGRDVGVFTFDHGMGYFESCNIHRNRIAGFEVKAYANPTVVRCEIHHGQTGGIYVHEKGRGQFIENKIYANNFAGVWITSNSDPTIRGNSIFNGNQGGVYIFGDGRGLIEGNDIYGNALAGIQIRTNSCPIVRHNKIHDGQHGGIYVHEKGQGVIEENEVYSNTLAGVWVTTGSTPVLRRNRIHSGKQVGVYFYDNGHGVLEDNDIYNHMYSGVQIRTGSNPKIRRNKIWGGQNGGILVYNSGLGCIEDNEIFDNAMAGVWIKTDSNPTLRRNKIHDGRDGGICIFNGGRGLLEENDIFRNAQAGVLISTNSHPILRKNRIFDGFAAGIEITNHATATLEGNQIFNNRFGGLFLASGVNVTMKDNKIMNNQDAIEKAVSRGQCLYKISSYTSYPMHDFYRCHTCNTTDRNAICVNCIKKCHQGHDVEFIRHDRFFCDCGAGTLSNPCTLAGEPTHDTDTLYDSAPPIESNTLQHN

Biological target: T1, FH-ER-SAMD1 (FLAG-HA-ER-tagged SAMD1) (UniProt Q6SPF0)
T1 sequence: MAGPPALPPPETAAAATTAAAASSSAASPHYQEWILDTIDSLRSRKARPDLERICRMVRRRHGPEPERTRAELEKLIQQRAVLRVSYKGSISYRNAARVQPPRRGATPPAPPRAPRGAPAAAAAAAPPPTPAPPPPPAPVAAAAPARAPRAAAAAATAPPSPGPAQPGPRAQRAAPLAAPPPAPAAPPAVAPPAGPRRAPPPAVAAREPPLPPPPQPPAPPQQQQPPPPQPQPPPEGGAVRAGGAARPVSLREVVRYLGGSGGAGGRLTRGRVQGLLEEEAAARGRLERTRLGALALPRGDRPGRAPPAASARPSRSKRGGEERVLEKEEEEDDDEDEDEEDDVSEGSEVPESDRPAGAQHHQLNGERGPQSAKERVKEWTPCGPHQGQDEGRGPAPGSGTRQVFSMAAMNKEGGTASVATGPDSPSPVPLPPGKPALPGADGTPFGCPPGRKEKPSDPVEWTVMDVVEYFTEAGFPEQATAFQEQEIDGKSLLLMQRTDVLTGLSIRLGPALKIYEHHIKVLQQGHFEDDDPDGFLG
Test: affinity purification with mass spectrometry; FLAG IP from dialysed, benzonase-treated nuclear extract of PaTu8988t SAMD1 KO cells stably expressing FH-ER-SAMD1 or FH-ER (control), 200 nM 4-OHT for 24 h; TAP buffer, 3 h at 4 °C; LC-MS on beads

Molecule | binding
NEDD8, endogenous in PaTu8988t cells (from UniProt Q15843 1-76) | binds
SKP1, endogenous in PaTu8988t cells (from UniProt P63208 1-163) | binds
B1 | binds
B2 | binds
B3 | binds
